# This is one part of the list.
# Assays:
# Test in all cases: glycan array binding signal (z-score within array); higher = stronger binding
# Conditions in all cases: glycan notation: IUPAC condensed, linker removed; mutation: D21K
# [1] = biological target: Gal(b1-4)GlcNAc(b1-2)Man(a1-6)[GlcNAc(b1-2)Man(a1-3)]Man(b1-4)GlcNAc(b1-4)GlcNAc
# In short: (§1)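 Arrays were curated from the Consortium for Functional Glycomics database, 3228 in total, and kept only where the protein sequence was available. Binding is expressed as a within-array Z-score. This score was averaged across arrays of the same protein sequence at different concentrations or buffers and across linkers, and negative values can be read as non-binding.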
# [2] = biological target: Gal(b1-4)GlcNAc(b1-2)Man(a1-6)[Man(a1-3)]Man(b1-4)GlcNAc(b1-4)GlcNAc
# In short: as §1
# [3] = biological target: Gal(b1-4)GlcNAc(b1-2)[Gal(b1-4)GlcNAc(b1-4)]Man(a1-3)[Gal(b1-4)GlcNAc(b1-2)Man(a1-6)]Man(b1-4)GlcNAc(b1-4)GlcNAc
# In short: as §1
# [4] = biological target: Gal(b1-4)GlcNAc(b1-2)[Gal(b1-4)GlcNAc(b1-4)]Man(a1-3)[Gal(b1-4)GlcNAc(b1-2)[Gal(b1-4)GlcNAc(b1-6)]Man(a1-6)]Man(b1-4)GlcNAc(b1-4)GlcNAc
# In short: as §1
# [5] = biological target: Gal(b1-4)GlcNAc(b1-2)[Gal(b1-4)GlcNAc(b1-4)]Man(a1-3)[GlcNAc(b1-4)][Gal(b1-4)GlcNAc(b1-2)Man(a1-6)]Man(b1-4)GlcNAc(b1-4)GlcNAc
# In short: as §1
# [6] = biological target: Gal(b1-4)GlcNAc(b1-2)[Gal(b1-4)GlcNAc(b1-4)]Man(a1-3)[GlcNAc(b1-4)][Gal(b1-4)GlcNAc(b1-2)[Gal(b1-4)GlcNAc(b1-6)]Man(a1-6)]Man(b1-4)GlcNAc(b1-4)GlcNAc
# In short: as §1
# [7] = biological target: Gal(b1-4)GlcNAc(b1-2)[Gal(b1-4)GlcNAc(b1-6)]Man(a1-6)[Gal(b1-4)GlcNAc(b1-2)Man(a1-3)]Man(b1-4)GlcNAc(b1-4)GlcNAc
# In short: as §1
# [8] = biological target: Gal(b1-4)GlcNAc(b1-2)[Gal(b1-4)GlcNAc(b1-6)]Man(a1-6)[Gal(b1-4)GlcNAc(b1-2)Man(a1-3)]Man(b1-4)GlcNAc(b1-4)[Fuc(a1-6)]GlcNAc
# In short: as §1
# [9] = biological target: Gal(b1-4)GlcNAc(b1-2)[Gal(b1-4)GlcNAc(b1-6)]Man(a1-6)[GlcNAc(b1-4)][Gal(b1-4)GlcNAc(b1-2)Man(a1-3)]Man(b1-4)GlcNAc(b1-4)GlcNAc
# In short: as §1
# [10] = biological target: Gal(b1-4)GlcNAc(b1-2)[Gal(b1-4)GlcNAc(b1-6)]Man(a1-6)[GlcNAc(b1-4)][Gal(b1-4)GlcNAc(b1-2)[Gal(b1-4)GlcNAc(b1-4)]Man(a1-3)]Man(b1-4)GlcNAc(b1-4)[Fuc(a1-6)]GlcNAc
# In short: as §1
# [11] = biological target: Gal(b1-4)GlcNAc(b1-3)Gal(b1-3)GalNAc
# In short: as §1
# [12] = biological target: Gal(b1-4)GlcNAc(b1-3)Gal(b1-3)GlcNAc
# In short: as §1
# [13] = biological target: Gal(b1-4)GlcNAc(b1-3)Gal(b1-4)Glc
# In short: as §1
# [14] = biological target: Gal(b1-4)GlcNAc(b1-3)Gal(b1-4)GlcNAc
# In short: as §1
# [15] = biological target: Gal(b1-4)GlcNAc(b1-3)Gal(b1-4)GlcNAc(b1-2)Man(a1-3)[Gal(b1-4)GlcNAc(b1-3)Gal(b1-4)GlcNAc(b1-2)Man(a1-6)]Man(b1-4)GlcNAc(b1-4)GlcNAc
# In short: as §1
# [16] = biological target: Gal(b1-4)GlcNAc(b1-3)Gal(b1-4)GlcNAc(b1-2)Man(a1-3)[Gal(b1-4)GlcNAc(b1-3)Gal(b1-4)GlcNAc(b1-2)Man(a1-6)]Man(b1-4)GlcNAc(b1-4)[Fuc(a1-6)]GlcNAc
# In short: as §1
# [17] = biological target: Gal(b1-4)GlcNAc(b1-3)Gal(b1-4)GlcNAc(b1-2)[Gal(b1-4)GlcNAc(b1-3)Gal(b1-4)GlcNAc(b1-6)]Man(a1-6)[Gal(b1-4)GlcNAc(b1-3)Gal(b1-4)GlcNAc(b1-2)Man(a1-3)]Man(b1-4)GlcNAc(b1-4)GlcNAc
# In short: as §1
# [18] = biological target: Gal(b1-4)GlcNAc(b1-3)Gal(b1-4)GlcNAc(b1-2)[Gal(b1-4)GlcNAc(b1-3)Gal(b1-4)GlcNAc(b1-6)]Man(a1-6)[Gal(b1-4)GlcNAc(b1-3)Gal(b1-4)GlcNAc(b1-2)Man(a1-3)]Man(b1-4)GlcNAc(b1-4)[Fuc(a1-6)]GlcNAc
# In short: as §1
# [19] = biological target: Gal(b1-4)GlcNAc(b1-3)Gal(b1-4)GlcNAc(b1-3)Gal(b1-4)GlcNAc
# In short: as §1
# [20] = biological target: Gal(b1-4)GlcNAc(b1-3)Gal(b1-4)GlcNAc(b1-3)Gal(b1-4)GlcNAc(b1-2)Man(a1-3)[Gal(b1-4)GlcNAc(b1-3)Gal(b1-4)GlcNAc(b1-3)Gal(b1-4)GlcNAc(b1-2)Man(a1-6)]Man(b1-4)GlcNAc(b1-4)GlcNAc
# In short: as §1
# [21] = biological target: Gal(b1-4)GlcNAc(b1-3)Gal(b1-4)GlcNAc(b1-3)Gal(b1-4)GlcNAc(b1-2)Man(a1-3)[Gal(b1-4)GlcNAc(b1-3)Gal(b1-4)GlcNAc(b1-3)Gal(b1-4)GlcNAc(b1-2)Man(a1-6)]Man(b1-4)GlcNAc(b1-4)[Fuc(a1-6)]GlcNAc
# In short: as §1
# [22] = biological target: Gal(b1-4)GlcNAc(b1-3)Gal(b1-4)GlcNAc(b1-3)Gal(b1-4)GlcNAc(b1-2)[Gal(b1-4)GlcNAc(b1-3)Gal(b1-4)GlcNAc(b1-3)Gal(b1-4)GlcNAc(b1-6)]Man(a1-6)[Gal(b1-4)GlcNAc(b1-3)Gal(b1-4)GlcNAc(b1-3)Gal(b1-4)GlcNAc(b1-2)Man(a1-3)]Man(b1-4)GlcNAc(b1-4)[Fuc(a1-6)]GlcNAc
# In short: as §1
# [23] = biological target: Gal(b1-4)GlcNAc(b1-3)Gal(b1-4)GlcNAc(b1-3)Gal(b1-4)GlcNAc(b1-3)Gal(b1-4)GlcNAc(b1-2)Man(a1-3)[Gal(b1-4)GlcNAc(b1-3)Gal(b1-4)GlcNAc(b1-3)Gal(b1-4)GlcNAc(b1-3)Gal(b1-4)GlcNAc(b1-2)Man(a1-6)]Man(b1-4)GlcNAc(b1-4)GlcNAc
# In short: as §1
# [24] = biological target: Gal(b1-4)GlcNAc(b1-3)Gal(b1-4)GlcNAc(b1-3)Gal(b1-4)GlcNAc(b1-3)Gal(b1-4)GlcNAc(b1-2)Man(a1-3)[Gal(b1-4)GlcNAc(b1-3)Gal(b1-4)GlcNAc(b1-3)Gal(b1-4)GlcNAc(b1-3)Gal(b1-4)GlcNAc(b1-2)Man(a1-6)]Man(b1-4)GlcNAc(b1-4)[Fuc(a1-6)]GlcNAc
# In short: as §1
# [25] = biological target: Gal(b1-4)GlcNAc(b1-3)Gal(b1-4)GlcNAc(b1-3)Gal(b1-4)GlcNAc(b1-3)Gal(b1-4)GlcNAc(b1-2)[Gal(b1-4)GlcNAc(b1-3)Gal(b1-4)GlcNAc(b1-3)Gal(b1-4)GlcNAc(b1-3)Gal(b1-4)GlcNAc(b1-6)]Man(a1-6)[Gal(b1-4)GlcNAc(b1-3)Gal(b1-4)GlcNAc(b1-3)Gal(b1-4)GlcNAc(b1-3)Gal(b1-4)GlcNAc(b1-2)Man(a1-3)]Man(b1-4)GlcNAc(b1-4)[Fuc(a1-6)]GlcNAc
# In short: as §1
# [26] = biological target: Gal(b1-4)GlcNAc(b1-3)Gal(b1-4)GlcNAc(b1-3)Gal(b1-4)GlcNAc(b1-3)Gal(b1-4)GlcNAc(b1-3)Gal(b1-4)GlcNAc(b1-2)Man(a1-3)[Gal(b1-4)GlcNAc(b1-3)Gal(b1-4)GlcNAc(b1-3)Gal(b1-4)GlcNAc(b1-3)Gal(b1-4)GlcNAc(b1-3)Gal(b1-4)GlcNAc(b1-2)Man(a1-6)]Man(b1-4)GlcNAc(b1-4)GlcNAc
# In short: as §1
binder,measurement,setting,value
KILRGVCKKIMRTFLRRISKKILTGKK [C7A (Sus scrofa)],glycan array binding signal (z-score),[1],-1.14
same,glycan array binding signal (z-score),[2],-0.77
same,glycan array binding signal (z-score),[3],-0.884
same,glycan array binding signal (z-score),[4],-1.9
same,glycan array binding signal (z-score),[5],-0.102
same,glycan array binding signal (z-score),[6],0.687
same,glycan array binding signal (z-score),[7],0.256
same,glycan array binding signal (z-score),[8],1.17
same,glycan array binding signal (z-score),[9],-0.597
same,glycan array binding signal (z-score),[10],0.179
same,glycan array binding signal (z-score),[11],1.19
same,glycan array binding signal (z-score),[12],-1.71
same,glycan array binding signal (z-score),[13],-0.403
same,glycan array binding signal (z-score),[14],-0.128
same,glycan array binding signal (z-score),[15],1.08
same,glycan array binding signal (z-score),[16],3.05
same,glycan array binding signal (z-score),[17],-0.48
same,glycan array binding signal (z-score),[18],0.618
same,glycan array binding signal (z-score),[19],-1.19
same,glycan array binding signal (z-score),[20],1.22
same,glycan array binding signal (z-score),[21],1.93
same,glycan array binding signal (z-score),[22],0.442
same,glycan array binding signal (z-score),[23],0.053
same,glycan array binding signal (z-score),[24],1.59
same,glycan array binding signal (z-score),[25],-0.172
same,glycan array binding signal (z-score),[26],0.909

# An excerpt of these results, bar-delimited.
binder | measurement | setting | value
KILRGVCKKIMRTFLRRISKKILTGKK [C7A (Sus scrofa)] | glycan array binding signal (z-score) | [17] | -0.48
same | glycan array binding signal (z-score) | [18] | 0.618

# From the supplement of paper PMC8728848
